Results published in the supplement of paper PMC10338343.
± gives the standard deviation. Some of the results follow. Many entries were measured with a wide error.

Test system: EfPiwi piRISC loaded with L1MC piRNA (26 nt)
Assay: pre-steady-state target cleavage rate (min^-1); guide: L1MC piRNA 5'p-UAACUAAAUACUAUGCAAGCUGUAGG; MIWI and MILI are mouse PIWI proteins and EfPiwi is from a freshwater sponge; tags in brackets are library labels; higher = faster piRNA-guided slicing of the target
Settings: auxiliary factor: 500 nM Ephydatia muelleri Gtsf1
Procedure: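 Cleave-'n-Seq: a library of target RNAs (target site in constant flanks) at […] was incubated with 1 nM active freshwater sponge Ephydatia fluviatilis Piwi piRISC (synthetic 5'-monophosphorylated piRNA guide) with or without 500 nM EmGtsf1 at 33 °C for 1 min to 16 h. Uncleaved targets were sequenced and the pooled three trials fitted to a burst-and-steady-state model to give the pre-steady-state cleavage rate (min^-1). Sequence is the target site only. Fits with R² ≤ 0 are excluded.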

| Sequence | pre-steady-state target cleavage rate |
| --- | --- |
| UCCUGCUACAGCAUGCAUAGUAUUUAGAAA | 0.00416 ± 0.0014 |
| UCCUGCUACUCCUUGCAUAGUAUUUAGAAA | 0.00264 ± 0.002 |
| UCCUGGAAGUGCUUGCAUAGUAUUUAGUAA | 0.00343 ± 0.0027 |
| UCCUCCUACAGCUUCGAUAGUAUUUAGUUA | 0.0137 ± 0.0042 |
| UCCUGGAUGUCGAACGUUAGUAUUUAGUCA | < 0.0001 |
| UCCUGGUACAGCUUGCAUAGUAUUUUGUAA | 0.00379 ± 0.0027 |
| UCCUGGUACAGCUUGGUUAGUAUUUAGUUA | 0.00478 ± 0.0032 |
| UCCUGGAUCAGCAUGCAUAGUAUAUAGUUA | 0.00329 ± 0.0028 |
| UCCUGGAUGUCGUAGCAUAGUAUUUAGUAA | 0.00106 ± 0.0074 |
| UCCUGGAUGUGCUUGCUUAGUUUUUAGUUA | 0.000317 ± 0.015 |
| UCCUGGUACAGCUUGCAAAGUAAUUAGUUA | 0.00305 ± 0.0021 |
| UCCUGGUACAGCUUGCUUAGUAUUUAGAAA | 0.00224 ± 0.002 |
| UCCUCCUACAGCUUGCAUAGUAUAUAGUUA | 0.00814 ± 0.0038 |
| UCCUGGAUGAGCUUGCAUAGCUAUUUAGUUA | 0.000505 ± 0.0069 |
| UCCUGGUACACGUUGCAUAGUAUUUAGUUA | 0.00176 ± 0.0065 |
| UCCUGCUGACAGCUUGCAUAGUAUUUAGUUA | 0.0486 ± 0.013 |
| UCCUGGUACAGCUUGCAUAGUAUUUAGAAA | 0.00435 ± 0.0017 |
| UCCUGGAUCUAGCUUGCAUAGUAUUUAGUUA | 0.0755 ± 0.019 |
| UCCUGGAUGUCGAACCAUUGUAUUUAGUAA | < 0.0001 |
| UCCUGGAUGACCUUCCAUAGUAUUUAGUUA | 0.00191 ± 0.0055 |
| UCCUGGAUCAGCUUGCAUAGUAUCUUAGUUA | 0.0248 ± 0.0072 |
| UCCUCCUACAGCUUGCAUACAAUUUAGUUA | 0.00233 ± 0.0029 |
| UCCUGGAUCAGCAUGCAUAGUAUUAAGUUA | 0.00392 ± 0.002 |

Same assay, conditions: auxiliary factor: none (no Gtsf1)

| Sequence | pre-steady-state target cleavage rate |
| --- | --- |
| UCCUGCUACAGCAUGCAUAGUAUUUAGAAA | 0.000135 ± 0.048 |
| UCCUGGAAGUGCUUGCAUAGUAUUUAGUAA | 0.000719 ± 0.012 |
| UCCUGGUACAGCUUGCAUAGUAUUUUGUAA | 0.000633 ± 0.014 |
| UCCUGGAUGUCGAACGAUAAUAUUUAGUUA | < 0.0001 |
| UCCUGGUACAGCUUGGUUAGUAUUUAGUUA | 0.000494 ± 0.033 |
| UCCUGGAUCAGCAUGCAUAGUAUAUAGUUA | 0.00098 ± 0.01 |
| UCCUGGAUGUCGUAGCAUAGUAUUUAGUAA | 0.000453 ± 0.014 |
| UCCUGGUACAGCUUGCAAAGUAAUUAGUUA | 0.000961 ± 0.0085 |
| UCCUGGAUGUCGAACGUAUGAAUUUAGAUA | < 0.0001 |
| UCCUGGUACAGCUUGCUUAGUAUUUAGAAA | 0.000678 ± 0.0081 |
| UCCUGCUACAGCUUCCAUAGUAUUUAGUUA | 0.000105 ± 0.027 |
| UCCUGGAUGAGCUUGCAUAGCUAUUUAGUUA | 0.000171 ± 0.04 |
| UCCUGGUACACGUUGCAUAGUAUUUAGUUA | 0.000192 ± 0.055 |
| UCCUGGAUGACCUUCCAUAGUAUUUAGUUA | 0.000317 ± 0.028 |
| UCCUGGAUCAGCUUGCAUAGUAUCUUAGUUA | 0.0132 ± 0.0071 |
| UCCUCCUACAGCUUGCAUACAAUUUAGUUA | 0.000743 ± 0.0066 |
| UCCUGGAUCAGCAUGCAUAGUAUUAAGUUA | 0.0034 ± 0.005 |
